# Assay results from article PMC9234244.
# These are yes or no findings as the source states them, for the method shown. Binding seen in cells or lysates may run through a third protein. For some of these results: Binding can be weak; no strength is given. Sequences can lack the tags named with a protein.
# Experiments:
# Assay in all cases: co-IP; HEK293T cells co-transfected; whole cell lysates incubated with the antibody at 4 °C overnight, then protein G or protein A beads 6 h at 4 °C; Western blotting
# [1] = target: 3× FLAG-FS domain of FSTL1
# [2] = target: 3× FLAG-VWC domain of FSTL1
# [3] = target: EC domain of FSTL1 (extracellular calcium–binding domain)
# [4] = target: EC–VWC domains of FSTL1
binder,measurement,setting,value
"SNAP-tagged FZD4 (SNAP-FZD4) (receptor, UniProt Q61088 37-537, BG-PEG12-Biotin on the SNAP tag (cell surface labelling experiment only)) FGDEEERRCDPIRIAMCQNLGYNVTKMPNLVGHELQTDAELQLTTFTPLIQYGCSSQLQFFLCSVYVPMCTEKINIPIGPCGGMCLSVKRRCEPVLREFGFAWPDTLNCSKFPPQNDHNHMCMEGPGDEEVPLPHKTPIQPGEECHSVGSNSDQYIWVKRSLNCVLKCGYDAGLYSRSAKEFTDIWMAVWASLCFISTTFTVLTFLIDSSRFSYPERPIIFLSMCYNIYSIAYIVRLTVGRERISCDFEEAAEPVLIQEGLKNTGCAIIFLLMYFFGMASSIWWVILTLTWFLAAGLKWGHEAIEMHSSYFHIAAWAIPAVKTIVILIMRLVDADELTGLCYVGNQNLDALTGFVVAPLFTYLVIGTLFIAAGLVALFKIRSNLQKDGTKTDKLERLMVKIGVFSVLYTVPATCVIACYFYEISNWALFRYSADDSNMAVEMLKIFMSLLVGITSGMWIWSAKTLHTWQKCSNRLVNSGKVKREKRGNGWVKPGKGNETVV",binding,[1],no binding
same,binding,[2],no binding
same,binding,[3],binds
same,binding,[4],binds
